PubChem BioAssay AID602196, INSERM, 2012

- Test: 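Knock-downs that protect lung cancer cells from cisplatin or sensitise them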
- Cell system: human A549 lung cancer cells
- Reagents: siRNA pair against human genes
- Time to read-out: 48 h transfection before cisplatin; time from cisplatin to read-out not stated
- Challenge: cisplatin at a dose killing half of control-siRNA cells; exact dose and duration not given
- Measured: 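Shift in cisplatin death relative to control siRNA, from -50 (all cells die) to +50 (no cells die); siRNAs harmful on their own scored 0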
- Direction: two-siRNA summed score (-2 to +2): higher = both siRNAs protect from cisplatin killing; -2 means both sensitise; mean protection from cisplatin (shift in death): higher = protection from cisplatin killing
- Call rule: 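siRNAs harmful alone (LDH or WST-1) get 0; others get +1 for less and -1 for more cisplatin killing; genes are active when the two siRNAs give the same sign, summing to ±2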
- Meaning of the calls: active = both siRNAs shift cisplatin killing the same way; inactive = no consistent shift, or siRNA harmful alone
The whole screen tested about 23,000 reagents; this is an unselected part. In the full data, 455 (2%) got an active call. 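Active includes both protection and sensitisation; some change values fall well beyond the stated -50 to +50 range.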 Reagents against one gene are numbered here. Further read-outs or replicates are left out here. Not given: the amount of reagent.

With knock-down of OR1J4 the results were two-siRNA summed score (-2 to +2) = 0; mean protection from cisplatin (shift in death) (%) = 1.3; inactive.
With knock-down of LOC392872, the screen gave two-siRNA summed score (-2 to +2) = 0; mean protection from cisplatin (shift in death) (%) = 6; inactive.
With knock-down of SP140L, the screen gave two-siRNA summed score (-2 to +2) = -1; mean protection from cisplatin (shift in death) (%) = -12.3; inactive.
With knock-down of IL34 the results were two-siRNA summed score (-2 to +2) = 0; mean protection from cisplatin (shift in death) (%) = 7.7; inactive.
Against TOMM22 the deposit lists two-siRNA summed score (-2 to +2) = 0; mean protection from cisplatin (shift in death) (%) = 8.5; inactive.
Against PPP4R1L, the values are two-siRNA summed score (-2 to +2) = 0; mean protection from cisplatin (shift in death) (%) = 4.2; inactive.
With knock-down of CCR5, the record shows two-siRNA summed score (-2 to +2) = 0; mean protection from cisplatin (shift in death) (%) = -0.4; inactive.
LINC00863 scored two-siRNA summed score (-2 to +2) = 0; mean protection from cisplatin (shift in death) (%) = 8; inactive.
Knock-down of PGLYRP3 came out at: two-siRNA summed score (-2 to +2) = 0; mean protection from cisplatin (shift in death) (%) = 4.9; inactive.
PCIF1 scored two-siRNA summed score (-2 to +2) = 1; mean protection from cisplatin (shift in death) (%) = 1.1; inactive.
Depletion of LOC441355 resulted in: two-siRNA summed score (-2 to +2) = 0; mean protection from cisplatin (shift in death) (%) = 4.2; inactive.
After knock-down of LOC391352, the screen gave two-siRNA summed score (-2 to +2) = 0; mean protection from cisplatin (shift in death) (%) = 3.3; inactive.
CCDC162P #1 scored two-siRNA summed score (-2 to +2) = 0; mean protection from cisplatin (shift in death) (%) = 6.5; inactive.
Silencing of CCDC162P #2 came out at: two-siRNA summed score (-2 to +2) = 0; mean protection from cisplatin (shift in death) (%) = 12.5; inactive.
For CCDC162P #3, the entry reads two-siRNA summed score (-2 to +2) = 1; mean protection from cisplatin (shift in death) (%) = 9.7; inactive.
Against BAAT the deposit lists two-siRNA summed score (-2 to +2) = 0; mean protection from cisplatin (shift in death) (%) = 0.4; inactive.
Knock-down of USP16 came out at: two-siRNA summed score (-2 to +2) = 1; mean protection from cisplatin (shift in death) (%) = 16; inactive.
Knock-down of PPP1R2 resulted in: two-siRNA summed score (-2 to +2) = -1; mean protection from cisplatin (shift in death) (%) = -6.6; inactive.
SLC5A11 gave two-siRNA summed score (-2 to +2) = 0; mean protection from cisplatin (shift in death) (%) = 0.5; inactive.
CPAP scored two-siRNA summed score (-2 to +2) = 0; mean protection from cisplatin (shift in death) (%) = -0.9; inactive.
For TMEM107, the values are two-siRNA summed score (-2 to +2) = 0; mean protection from cisplatin (shift in death) (%) = 6.8; inactive.
Knock-down of TXLNGY #1 gave: two-siRNA summed score (-2 to +2) = 0; mean protection from cisplatin (shift in death) (%) = 4.2; inactive.
Knock-down of TXLNGY #2 came out at: two-siRNA summed score (-2 to +2) = 1; mean protection from cisplatin (shift in death) (%) = 4.9; inactive.
Knock-down of OGFR gave: two-siRNA summed score (-2 to +2) = 0; mean protection from cisplatin (shift in death) (%) = -18.2; inactive.
With knock-down of RHBDL1, the screen gave two-siRNA summed score (-2 to +2) = 0; mean protection from cisplatin (shift in death) (%) = 5.3; inactive.
PCSK7 showed two-siRNA summed score (-2 to +2) = 0; mean protection from cisplatin (shift in death) (%) = -25.7; inactive.
LOC126537 gave two-siRNA summed score (-2 to +2) = 1; mean protection from cisplatin (shift in death) (%) = 8.1; inactive.
Knock-down of BGLAP gave: two-siRNA summed score (-2 to +2) = 0; mean protection from cisplatin (shift in death) (%) = 1.7; inactive.
Depletion of PPDPF gave: two-siRNA summed score (-2 to +2) = 1; mean protection from cisplatin (shift in death) (%) = 15.9; inactive.
ZBED8L gave two-siRNA summed score (-2 to +2) = -1; mean protection from cisplatin (shift in death) (%) = -3.5; inactive.
CALY showed two-siRNA summed score (-2 to +2) = -1; mean protection from cisplatin (shift in death) (%) = 0.5; inactive.
